No constants are given. Whether binding was seen depends on the method and setting. In cells and extracts the contact can be indirect. Binding calls can cover weak binding; strength is not graded here.

The target of assay [1] is mature form of SREBP2 (mSREBP2) (human (endogenous in NCI-H929)). Put plainly: co-IP; anti-SREBP1 or anti-SREBP2 antibodies, lysates of control and LPIN1-knockdown NCI-H929 cells; Western blot.
For assay [2], the target named is mature form of SREBP1 (mSREBP1) (human (endogenous in NCI-H929)). Described as above.

B1: Lipin1 (protein, UniProt Q14693 1-890)
chain: MNYVGQLAGQVFVTVKELYKGLNPATLSGCIDIIVIRQPNGNLQCSPFHVRFGKMGVLRSREKVVDIEINGESVDLHMKLGDNGEAFFVQETDNDQEVIPMHLATSPILSEGASRMECQLKRGSVDRMRGLDPSTPAQVIAPSETPSSSSVVKKRRKRRRKSQLDSLKRDDNMNTSEDEDMFPIEMSSDEAMELLESSRTLPNDIPPFQDDIPEENLSLAVIYPQSASYPNSDREWSPTPSPSGSRPSTPKSDSELVSKSTERTGQKNPEMLWLWGELPQAAKSSSPHKMKESSPLSSRKICDKSHFQAIHSESSDTFSDQSPTLVGGALLDQNKPQTEMQFVNEEDLETLGAAAPLLPMIEELKPPSASVVQTANKTDSPSRKRDKRSRHLGADGVYLDDLTDMDPEVAALYFPKNGDPSGLAKHASDNGARSANQSPQSVGSSGVDSGVESTSDGLRDLPSIAISLCGGLSDHREITKDAFLEQAVSYQQFVDNPAIIDDPNLVVKIGSKYYNWTTAAPLLLAMQAFQKPLPKATVESIMRDKMPKKGGRWWFSWRGRNTTIKEESKPEQCLAGKAHSTGEQPPQLSLATRVKHESSSSDEERAAAKPSNAGHLPLLPNVSYKKTLRLTSEQLKSLKLKNGPNDVVFSVTTQYQGTCRCEGTIYLWNWDDKVIISDIDGTITRSDTLGHILPTLGKDWTHQGIAKLYHKVSQNGYKFLYCSARAIGMADMTRGYLHWVNERGTVLPQGPLLLSPSSLFSALHREVIEKKPEKFKVQCLTDIKNLFFPNTEPFYAAFGNRPADVYSYKQVGVSLNRIFTVNPKGELVQEHAKTNISSYVRLCEVVDHVFPLLKRSHSSDFPCSDTFSNFTFWREPLPPFENQDIHSASA
For B1, the binding entry in assay [1] and in assay [2] was “binds” in each case.

(Values after PMC12373733.)
